Reference: article PMC6488192 (2019)

Chains of the proteins cited; added tags and fusions are not shown. Residues count along the entry.
UniProt Q581T1, residues 31-2167: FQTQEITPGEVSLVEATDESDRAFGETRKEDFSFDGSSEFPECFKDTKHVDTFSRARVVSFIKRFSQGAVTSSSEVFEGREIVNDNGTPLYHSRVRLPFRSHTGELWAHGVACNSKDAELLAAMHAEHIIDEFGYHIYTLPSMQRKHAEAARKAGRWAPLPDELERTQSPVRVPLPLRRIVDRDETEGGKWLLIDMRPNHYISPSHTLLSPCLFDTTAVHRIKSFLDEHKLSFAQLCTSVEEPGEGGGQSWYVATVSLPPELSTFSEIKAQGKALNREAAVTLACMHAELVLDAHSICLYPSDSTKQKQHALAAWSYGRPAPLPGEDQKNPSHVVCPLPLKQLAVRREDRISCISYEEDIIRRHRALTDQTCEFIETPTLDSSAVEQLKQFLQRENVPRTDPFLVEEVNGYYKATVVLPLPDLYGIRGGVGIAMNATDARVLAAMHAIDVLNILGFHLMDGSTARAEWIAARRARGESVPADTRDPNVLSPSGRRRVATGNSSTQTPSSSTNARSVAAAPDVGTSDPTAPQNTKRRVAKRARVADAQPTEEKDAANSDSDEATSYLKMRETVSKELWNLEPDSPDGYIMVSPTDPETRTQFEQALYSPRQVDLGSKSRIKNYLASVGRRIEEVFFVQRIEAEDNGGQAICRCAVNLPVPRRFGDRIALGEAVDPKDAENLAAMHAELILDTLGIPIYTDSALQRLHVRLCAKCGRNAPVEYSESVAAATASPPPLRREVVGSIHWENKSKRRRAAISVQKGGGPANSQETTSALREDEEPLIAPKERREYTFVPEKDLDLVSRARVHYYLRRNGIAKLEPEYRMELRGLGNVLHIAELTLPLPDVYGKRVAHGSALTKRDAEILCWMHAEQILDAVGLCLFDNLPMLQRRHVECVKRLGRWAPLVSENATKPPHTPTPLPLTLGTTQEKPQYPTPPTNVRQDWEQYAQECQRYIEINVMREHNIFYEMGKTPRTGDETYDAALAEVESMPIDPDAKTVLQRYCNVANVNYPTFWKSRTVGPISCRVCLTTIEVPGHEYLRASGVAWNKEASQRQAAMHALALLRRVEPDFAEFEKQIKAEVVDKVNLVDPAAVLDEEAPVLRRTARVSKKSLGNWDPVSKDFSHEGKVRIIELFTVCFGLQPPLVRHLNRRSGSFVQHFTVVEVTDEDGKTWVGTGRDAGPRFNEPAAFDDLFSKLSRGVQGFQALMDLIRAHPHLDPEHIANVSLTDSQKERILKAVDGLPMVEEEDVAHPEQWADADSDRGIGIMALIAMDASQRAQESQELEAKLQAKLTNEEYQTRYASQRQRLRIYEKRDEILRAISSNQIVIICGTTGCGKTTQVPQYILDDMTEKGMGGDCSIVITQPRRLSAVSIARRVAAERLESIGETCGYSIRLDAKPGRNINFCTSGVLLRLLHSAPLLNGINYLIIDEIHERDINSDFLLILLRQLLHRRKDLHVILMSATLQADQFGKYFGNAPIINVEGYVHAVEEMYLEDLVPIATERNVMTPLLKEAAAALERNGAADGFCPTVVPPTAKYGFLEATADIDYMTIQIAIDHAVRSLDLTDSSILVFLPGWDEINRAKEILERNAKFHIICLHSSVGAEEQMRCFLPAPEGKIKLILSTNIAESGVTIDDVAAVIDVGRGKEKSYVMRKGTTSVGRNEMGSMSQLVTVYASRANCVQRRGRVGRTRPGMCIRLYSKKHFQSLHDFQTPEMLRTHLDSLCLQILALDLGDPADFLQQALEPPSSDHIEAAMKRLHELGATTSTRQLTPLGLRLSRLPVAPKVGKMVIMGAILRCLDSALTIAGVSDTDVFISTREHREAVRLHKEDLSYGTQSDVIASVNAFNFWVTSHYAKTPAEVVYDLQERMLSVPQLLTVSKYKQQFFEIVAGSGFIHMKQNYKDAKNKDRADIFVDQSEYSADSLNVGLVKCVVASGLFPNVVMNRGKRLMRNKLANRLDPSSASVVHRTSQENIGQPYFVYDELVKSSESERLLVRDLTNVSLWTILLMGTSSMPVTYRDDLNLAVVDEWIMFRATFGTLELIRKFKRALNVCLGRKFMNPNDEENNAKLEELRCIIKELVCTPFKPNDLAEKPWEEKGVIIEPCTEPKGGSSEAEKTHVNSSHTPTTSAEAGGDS

Legend:
Test in all cases: pull-down; TAP-tagged bait recovered on Dynabeads IgG from whole-cell or mitochondria-enriched T. brucei extract (~2 mg protein, with RNase inhibitor); washes 150 mM NaCl, 1 mM EDTA, 10 mM MgOAc, 0.1% NP-40, 25 mM Tris pH 8.0; endogenous partners by Western blot, REL1 by radiolabelled self-adenylation; mutants normalised to WT
[1] = molecular target: ^H2F1 Znf1 R/K>A with TAP tag (T. brucei) (UniProt Q585P3)
[2] = molecular target: ^H2F1 Znf2 R/K>A with TAP tag (T. brucei) (UniProt Q585P3)
[3] = molecular target: ^H2F1 Znf3 R/K>A with TAP tag (T. brucei) (UniProt Q585P3)
[4] = molecular target: ^H2F1 Znf4 R/K>A with TAP tag (T. brucei) (UniProt Q585P3)
[5] = molecular target: ^H2F1 Znf5 C2>A2 with TAP tag (T. brucei) (UniProt Q585P3)
[6] = molecular target: ^H2F1 Znf5 R/K>A with TAP tag (T. brucei) (UniProt Q585P3)

Measured: binding

RNA Editing Helicase 2 (REH2), endogenous (from UniProt Q581T1 31-2167) (enzyme)
binds: all assays above

Results are given in words; binding and its absence hold for the method and conditions named. Binding seen in cells or lysates may run through a third protein. Binding can be weak; no strength is given.
